In the supplement of paper PMC12819154, “High-throughput peptide-centric local stability assay extends protein–ligand identification to membrane proteins, tissues and bacteria” (Nature Structural & Molecular Biology, 2025):
This is one part of the list. Most values lie at the level of the controls, where differences are scatter.

The chains behind the UniProt entries cited, without tags or fusion partners. Where a name states a change or a piece, a line headed by the entry shows the natural chain unless it says otherwise.
UniProt Q9CZH7: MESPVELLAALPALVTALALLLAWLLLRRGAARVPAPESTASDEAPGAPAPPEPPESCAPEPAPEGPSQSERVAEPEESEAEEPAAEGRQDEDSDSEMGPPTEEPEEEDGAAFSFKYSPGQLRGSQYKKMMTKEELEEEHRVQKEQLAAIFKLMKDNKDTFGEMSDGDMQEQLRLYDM
UniProt Q9D2V7: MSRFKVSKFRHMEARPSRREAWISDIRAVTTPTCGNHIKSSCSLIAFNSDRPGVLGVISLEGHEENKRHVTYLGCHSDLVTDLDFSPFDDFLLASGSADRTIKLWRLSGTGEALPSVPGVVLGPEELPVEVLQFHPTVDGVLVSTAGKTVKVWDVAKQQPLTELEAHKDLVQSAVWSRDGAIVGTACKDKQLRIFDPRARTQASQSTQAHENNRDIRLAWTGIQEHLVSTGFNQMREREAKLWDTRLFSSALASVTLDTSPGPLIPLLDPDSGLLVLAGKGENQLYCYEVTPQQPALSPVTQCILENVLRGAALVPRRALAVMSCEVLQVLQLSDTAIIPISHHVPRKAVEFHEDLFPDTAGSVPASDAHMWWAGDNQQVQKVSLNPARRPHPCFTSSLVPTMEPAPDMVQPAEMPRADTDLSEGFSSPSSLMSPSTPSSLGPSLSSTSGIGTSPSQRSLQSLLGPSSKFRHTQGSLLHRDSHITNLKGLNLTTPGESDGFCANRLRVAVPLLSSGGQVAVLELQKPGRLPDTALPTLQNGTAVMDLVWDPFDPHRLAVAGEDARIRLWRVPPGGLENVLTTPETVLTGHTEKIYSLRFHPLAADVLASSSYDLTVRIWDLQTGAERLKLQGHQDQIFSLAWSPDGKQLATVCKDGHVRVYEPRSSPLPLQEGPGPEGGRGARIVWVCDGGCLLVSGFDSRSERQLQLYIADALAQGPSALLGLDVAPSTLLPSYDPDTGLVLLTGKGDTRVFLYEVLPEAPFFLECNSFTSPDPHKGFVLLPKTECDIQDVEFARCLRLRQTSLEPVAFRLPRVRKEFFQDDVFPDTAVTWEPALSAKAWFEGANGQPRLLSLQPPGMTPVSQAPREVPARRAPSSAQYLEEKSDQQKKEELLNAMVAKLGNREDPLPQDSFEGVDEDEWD
UniProt Q9CYS6: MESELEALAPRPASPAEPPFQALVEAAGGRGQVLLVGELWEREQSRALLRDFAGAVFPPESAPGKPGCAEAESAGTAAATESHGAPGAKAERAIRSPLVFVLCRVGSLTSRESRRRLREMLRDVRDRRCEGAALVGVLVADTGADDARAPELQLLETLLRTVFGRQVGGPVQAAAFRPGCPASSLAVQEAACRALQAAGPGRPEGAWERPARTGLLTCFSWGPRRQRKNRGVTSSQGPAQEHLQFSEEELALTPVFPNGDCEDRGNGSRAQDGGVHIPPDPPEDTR
UniProt Q9D1J3: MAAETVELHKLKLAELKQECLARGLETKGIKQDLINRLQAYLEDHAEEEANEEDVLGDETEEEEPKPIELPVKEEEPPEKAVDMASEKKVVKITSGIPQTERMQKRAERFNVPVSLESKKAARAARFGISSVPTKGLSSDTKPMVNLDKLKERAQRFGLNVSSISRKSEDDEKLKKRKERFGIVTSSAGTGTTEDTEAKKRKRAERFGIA
UniProt Q9D753, whole entry: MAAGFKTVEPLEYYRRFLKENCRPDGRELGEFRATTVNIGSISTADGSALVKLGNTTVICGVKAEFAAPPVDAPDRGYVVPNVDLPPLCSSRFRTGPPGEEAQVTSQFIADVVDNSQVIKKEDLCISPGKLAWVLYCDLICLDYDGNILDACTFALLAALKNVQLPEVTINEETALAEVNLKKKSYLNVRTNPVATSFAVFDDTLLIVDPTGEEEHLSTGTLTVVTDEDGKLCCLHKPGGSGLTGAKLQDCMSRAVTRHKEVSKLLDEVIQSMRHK
UniProt Q9DBB8: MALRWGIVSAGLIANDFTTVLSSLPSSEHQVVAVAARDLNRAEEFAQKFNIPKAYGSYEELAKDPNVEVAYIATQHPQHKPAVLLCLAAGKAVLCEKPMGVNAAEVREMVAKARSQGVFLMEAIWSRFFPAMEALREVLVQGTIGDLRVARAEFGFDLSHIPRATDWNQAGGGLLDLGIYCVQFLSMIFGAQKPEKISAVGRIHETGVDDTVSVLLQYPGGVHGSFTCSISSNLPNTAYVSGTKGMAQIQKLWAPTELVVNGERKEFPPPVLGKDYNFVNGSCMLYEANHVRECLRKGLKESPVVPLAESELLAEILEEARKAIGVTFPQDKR
UniProt Q9DB20: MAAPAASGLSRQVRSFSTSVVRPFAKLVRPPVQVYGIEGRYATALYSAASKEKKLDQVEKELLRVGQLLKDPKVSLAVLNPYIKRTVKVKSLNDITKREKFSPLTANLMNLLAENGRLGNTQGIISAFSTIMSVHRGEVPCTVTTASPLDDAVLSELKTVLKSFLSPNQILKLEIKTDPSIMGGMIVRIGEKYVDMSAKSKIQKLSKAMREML
UniProt Q9CXS4: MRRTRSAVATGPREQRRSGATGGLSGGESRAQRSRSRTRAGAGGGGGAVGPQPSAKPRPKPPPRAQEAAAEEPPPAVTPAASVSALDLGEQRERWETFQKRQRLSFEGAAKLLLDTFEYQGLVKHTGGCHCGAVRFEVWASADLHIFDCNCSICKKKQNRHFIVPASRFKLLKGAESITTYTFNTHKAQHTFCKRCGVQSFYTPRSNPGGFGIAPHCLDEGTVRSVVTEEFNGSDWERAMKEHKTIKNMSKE
UniProt Q9D358: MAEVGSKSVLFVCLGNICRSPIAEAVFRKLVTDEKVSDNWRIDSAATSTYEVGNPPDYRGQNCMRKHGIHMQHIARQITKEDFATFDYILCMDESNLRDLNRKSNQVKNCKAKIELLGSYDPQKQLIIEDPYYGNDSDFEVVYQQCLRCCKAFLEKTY
UniProt Q9D6U8: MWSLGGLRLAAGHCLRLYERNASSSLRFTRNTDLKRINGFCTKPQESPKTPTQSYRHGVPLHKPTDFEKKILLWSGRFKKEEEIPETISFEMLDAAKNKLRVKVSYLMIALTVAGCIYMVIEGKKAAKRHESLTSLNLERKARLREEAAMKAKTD
UniProt Q9D1J1: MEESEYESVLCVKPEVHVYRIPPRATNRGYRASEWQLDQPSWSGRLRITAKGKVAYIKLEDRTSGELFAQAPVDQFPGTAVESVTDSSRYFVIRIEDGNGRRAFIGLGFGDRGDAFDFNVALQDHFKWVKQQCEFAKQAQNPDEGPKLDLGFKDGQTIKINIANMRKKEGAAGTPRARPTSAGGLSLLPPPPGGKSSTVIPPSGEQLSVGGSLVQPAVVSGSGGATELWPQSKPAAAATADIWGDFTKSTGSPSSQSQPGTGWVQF
UniProt Q9D883: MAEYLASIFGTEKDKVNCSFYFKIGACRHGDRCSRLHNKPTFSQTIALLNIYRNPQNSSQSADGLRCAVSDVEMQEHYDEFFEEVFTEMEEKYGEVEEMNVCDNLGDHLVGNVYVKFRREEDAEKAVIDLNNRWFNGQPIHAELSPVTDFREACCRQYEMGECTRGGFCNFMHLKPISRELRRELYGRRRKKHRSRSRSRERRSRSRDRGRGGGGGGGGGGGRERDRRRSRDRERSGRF
UniProt Q9D8T2: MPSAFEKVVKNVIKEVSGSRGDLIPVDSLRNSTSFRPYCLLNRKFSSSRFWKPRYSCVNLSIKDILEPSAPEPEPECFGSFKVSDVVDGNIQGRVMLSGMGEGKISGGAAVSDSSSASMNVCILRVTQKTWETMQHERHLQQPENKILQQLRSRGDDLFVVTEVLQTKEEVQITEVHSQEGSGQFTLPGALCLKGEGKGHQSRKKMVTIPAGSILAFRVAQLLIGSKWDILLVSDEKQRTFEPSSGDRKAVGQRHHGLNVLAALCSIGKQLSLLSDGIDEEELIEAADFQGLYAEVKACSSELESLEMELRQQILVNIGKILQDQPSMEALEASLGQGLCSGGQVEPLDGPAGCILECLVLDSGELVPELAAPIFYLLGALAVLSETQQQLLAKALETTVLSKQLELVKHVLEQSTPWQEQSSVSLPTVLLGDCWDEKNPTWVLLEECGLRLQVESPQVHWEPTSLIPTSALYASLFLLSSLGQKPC
UniProt Q9CZE3: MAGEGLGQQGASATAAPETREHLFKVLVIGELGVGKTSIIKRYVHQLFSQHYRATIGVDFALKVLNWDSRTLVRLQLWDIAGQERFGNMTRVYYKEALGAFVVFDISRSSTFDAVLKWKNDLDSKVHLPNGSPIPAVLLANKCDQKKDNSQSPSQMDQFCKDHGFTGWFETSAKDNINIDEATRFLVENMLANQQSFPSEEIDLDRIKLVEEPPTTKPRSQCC
UniProt Q9D906: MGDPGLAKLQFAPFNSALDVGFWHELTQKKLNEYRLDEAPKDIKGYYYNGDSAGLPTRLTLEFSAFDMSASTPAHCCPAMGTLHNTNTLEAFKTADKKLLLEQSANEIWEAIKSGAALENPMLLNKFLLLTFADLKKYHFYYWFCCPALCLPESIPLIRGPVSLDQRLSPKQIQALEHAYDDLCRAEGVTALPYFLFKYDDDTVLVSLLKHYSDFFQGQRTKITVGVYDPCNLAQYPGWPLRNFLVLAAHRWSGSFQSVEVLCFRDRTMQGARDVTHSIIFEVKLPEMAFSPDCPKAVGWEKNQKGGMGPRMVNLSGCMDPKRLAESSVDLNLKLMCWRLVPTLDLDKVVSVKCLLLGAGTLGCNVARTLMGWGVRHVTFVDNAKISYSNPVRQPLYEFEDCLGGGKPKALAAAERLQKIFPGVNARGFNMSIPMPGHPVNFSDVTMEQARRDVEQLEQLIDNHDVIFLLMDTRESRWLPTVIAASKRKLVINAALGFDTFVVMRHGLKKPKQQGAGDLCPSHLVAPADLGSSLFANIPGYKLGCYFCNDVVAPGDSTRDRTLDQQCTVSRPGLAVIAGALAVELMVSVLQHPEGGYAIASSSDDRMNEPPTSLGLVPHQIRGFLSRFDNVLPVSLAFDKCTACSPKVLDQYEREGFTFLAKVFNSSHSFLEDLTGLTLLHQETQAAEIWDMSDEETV
UniProt Q9CYW4: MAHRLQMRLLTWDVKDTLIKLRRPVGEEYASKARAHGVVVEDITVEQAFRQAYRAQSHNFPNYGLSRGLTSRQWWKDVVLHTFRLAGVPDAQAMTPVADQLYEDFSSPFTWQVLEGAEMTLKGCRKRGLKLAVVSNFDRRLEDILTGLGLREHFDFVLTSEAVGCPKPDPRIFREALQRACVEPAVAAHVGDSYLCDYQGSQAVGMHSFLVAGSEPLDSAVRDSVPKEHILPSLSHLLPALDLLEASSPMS
UniProt Q9DBN1: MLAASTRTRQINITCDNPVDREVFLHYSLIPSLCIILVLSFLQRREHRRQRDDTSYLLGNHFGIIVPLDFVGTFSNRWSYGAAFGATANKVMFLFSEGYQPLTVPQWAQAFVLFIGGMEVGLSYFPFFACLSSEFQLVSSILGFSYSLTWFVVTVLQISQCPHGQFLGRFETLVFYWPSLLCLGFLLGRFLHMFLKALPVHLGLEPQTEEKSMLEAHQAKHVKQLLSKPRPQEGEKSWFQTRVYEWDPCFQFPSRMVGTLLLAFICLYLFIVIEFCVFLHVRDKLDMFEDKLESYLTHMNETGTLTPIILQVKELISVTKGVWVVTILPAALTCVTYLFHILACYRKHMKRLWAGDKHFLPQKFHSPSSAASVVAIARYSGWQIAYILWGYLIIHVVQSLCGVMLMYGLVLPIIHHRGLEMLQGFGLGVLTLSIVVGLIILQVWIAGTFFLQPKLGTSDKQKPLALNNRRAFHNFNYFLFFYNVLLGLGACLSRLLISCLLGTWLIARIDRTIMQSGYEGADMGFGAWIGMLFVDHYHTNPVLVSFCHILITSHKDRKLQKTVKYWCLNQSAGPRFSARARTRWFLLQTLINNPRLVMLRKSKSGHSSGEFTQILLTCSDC
UniProt Q9CYV5: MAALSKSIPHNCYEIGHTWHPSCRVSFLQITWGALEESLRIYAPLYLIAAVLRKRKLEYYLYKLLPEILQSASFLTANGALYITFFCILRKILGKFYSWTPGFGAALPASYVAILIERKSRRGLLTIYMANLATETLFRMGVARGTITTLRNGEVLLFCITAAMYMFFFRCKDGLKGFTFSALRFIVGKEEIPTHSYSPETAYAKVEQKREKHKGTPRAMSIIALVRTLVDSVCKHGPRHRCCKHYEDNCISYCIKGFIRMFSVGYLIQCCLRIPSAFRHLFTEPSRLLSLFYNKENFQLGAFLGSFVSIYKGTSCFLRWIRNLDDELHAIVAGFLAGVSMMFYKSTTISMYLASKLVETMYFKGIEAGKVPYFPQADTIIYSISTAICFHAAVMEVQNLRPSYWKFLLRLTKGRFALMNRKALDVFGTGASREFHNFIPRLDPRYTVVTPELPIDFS
UniProt Q9CYA0: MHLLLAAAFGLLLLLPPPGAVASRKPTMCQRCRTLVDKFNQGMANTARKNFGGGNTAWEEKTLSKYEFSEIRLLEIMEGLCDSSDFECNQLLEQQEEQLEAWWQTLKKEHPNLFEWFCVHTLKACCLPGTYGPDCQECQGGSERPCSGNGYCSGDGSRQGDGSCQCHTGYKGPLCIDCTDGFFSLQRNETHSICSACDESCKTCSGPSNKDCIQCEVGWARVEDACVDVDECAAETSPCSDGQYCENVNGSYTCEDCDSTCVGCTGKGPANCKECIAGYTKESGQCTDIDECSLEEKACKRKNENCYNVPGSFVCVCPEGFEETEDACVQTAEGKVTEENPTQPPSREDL

compound: CN[C@@H]1C[C@H]2O[C@@](C)([C@@H]1OC)n1c3ccccc3c3c4c(c5c6ccccc6n2c5c31)C(=O)NC4 [staurosporine]; test: log2 fold change of pooled soluble protein (PISA), ligand vs vehicle (log2 ratio); higher = more thermally stabilized; details: ligand concentration: 20 uM; assay format: PISA pool 52.9/55.5/58.6 C

Target | log2 fold change of pooled soluble protein
UniProt Q9CY97 | 0.0842
UniProt Q9DBP5 | -0.0017
UniProt Q9CZH7 | -0.263
UniProt Q9D6K8 | -0.0043
UniProt Q9D2V7 | -0.107
UniProt Q9CYS6 | -0.324
UniProt Q9CYA6 | 0.213
UniProt Q9D1J3 | -0.114
UniProt Q9D753 | 0.00444
UniProt Q9DBB8 | 0.0614
UniProt Q9D937 | -0.308
UniProt Q9DB20 | -0.154
UniProt Q9D154 | -0.114
UniProt Q9CXS4 | -0.0956
UniProt Q9D358 | -0.0933
UniProt Q9CXR1 | 0.56
UniProt Q9D6U8 | 0.0969
UniProt Q9D1J1 | 0.133
UniProt Q9D883 | -0.0125

Target | log2 fold change of pooled soluble protein
UniProt Q9CZX8 | 0.115
UniProt Q9D0E3 | -0.242
UniProt Q9D924 | -0.0209
UniProt Q9D8T2 | -0.0424
UniProt Q9CZE3 | 0.00348
UniProt Q9D1F4 | -0.147
UniProt Q9D906 | 0.363
UniProt Q9CYW4 | 0.0218
UniProt Q9DBN1 | 0.144
UniProt Q9CXL3 | -0.0307
UniProt Q9CY27 | 0.116
UniProt Q9CYV5 | -0.031
UniProt Q9D0M0 | 0.22
UniProt Q9CYA0 | -0.0171
UniProt Q9D8S4 | -0.0654
UniProt Q9D024 | -0.139
UniProt Q9D289 | -0.0765
UniProt Q9D6N5 | 0.0525

Taken from the entries so far for reference:
Target | log2 fold change of pooled soluble protein
UniProt Q9CZX8 | 0.115
UniProt Q9D0E3 | -0.242
